{"source": "PubChem BioAssay AID686937 (Drosophila RNAi Screening Center, 2013)", "test": "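Genes in the fly needed for secretion of protein constitutively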 (primary screen)", "system": "Drosophila S2 cells expressing secreted horseradish peroxidase", "knock-down reagent": "long dsRNA against Drosophila genes", "duration": "about 5.5 days (5 days dsRNA, then 12 h reporter induction)", "treatment": "reporter expression induced after 5 days of dsRNA, read 12 h later; inducer not stated", "detection": "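Chemiluminescent measurement of peroxidase in the medium 12 h after reporter induction, following 5 days of dsRNA, given as a z-score per plate; higher means more secretion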", "reading the numbers": "z-score: higher = more reporter secreted into medium", "note": "The deposit covers about 23,000 reagents; this is a random part of those that have a named target and a result. 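Reduced-secretion tags in replicate 1 do not always agree with the z-scores; no criterion for assigning the tags was given.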 The numbers tell different reagents against one gene apart. Names joined by + are all predicted targets of the reagent. Not all columns of the deposit are shown. The record does not give: the amount of reagent."}
{"Target gene":"Vmat + CG13330","dsRNA no.":1,"z-score, replicate 1":0.28}
{"Target gene":"Cpr47Ea","dsRNA no.":1,"z-score, replicate 1":0.36}
{"Target gene":"CG3092","dsRNA no.":1,"z-score, replicate 1":0.32}
{"Target gene":"SCCRO4","dsRNA no.":1,"z-score, replicate 1":0.41}
{"Target gene":"CR18275","dsRNA no.":1,"z-score, replicate 1":0.4}
{"Target gene":"BHD","dsRNA no.":1,"z-score, replicate 1":0.2}
{"Target gene":"BHD","dsRNA no.":2,"z-score, replicate 1":-0.68}
{"Target gene":"CG17404","dsRNA no.":1,"z-score, replicate 1":0.42}
{"Target gene":"Src42A","dsRNA no.":1,"z-score, replicate 1":0.4}
{"Target gene":"Src42A","dsRNA no.":2,"z-score, replicate 1":-0.16}
{"Target gene":"CG15011","dsRNA no.":1,"z-score, replicate 1":0.45}
{"Target gene":"CG13185","dsRNA no.":1,"z-score, replicate 1":0.3}
{"Target gene":"PH4alphaSG1","dsRNA no.":1,"z-score, replicate 1":0.17}
{"Target gene":"CG31226","dsRNA no.":1,"z-score, replicate 1":-2.04,"phenotype, replicate 1":"reduced secretion"}
{"Target gene":"ppk29","dsRNA no.":1,"z-score, replicate 1":0.16}
{"Target gene":"CG8613","dsRNA no.":1,"z-score, replicate 1":0.45}
